Assay results taken from article doi:10.1101/2022.06.26.497646.

Molecular target: NDUCA1 (Tetrahymena thermophila (endogenous))
Assay: cryo-EM structure

- binding: binds
B1: COX3b (protein, UniProt Q950Y6 1-594)
chain: MLICNFLMYSNFSRIYWFDFNGTVNENLPLNYNVLKICRNEINKLEKLNENNLGTQKNPIKLNLSFEDKHYNTNNLVLDLNSYETFNSKNFISSIFDKTFESLNTVLMAPIYSFLEFKLKLSSTKINTNHYYVINGKLYITYNDSFKLFTTINDYFNDLNELSNTKLFFLYRSFNIYNIKLNSLVDFVFLKLILFIHLLYLKSTNYNRFDYRLKQTDWGFYINNNSNYIQNIFSGLKYIWRGLRFWIIGLLLGLSSIYYLMYVRLLPFNKIIFAWILVAMFLYWLLSGFVFFVKKYQYSKFTAAIQRFWKRTYIIFWVIEAGTFSVFFYLTLNASSEPVYMYDQIKIYKTHLFSWRWFLIKLLPSVSIILLGYYLQLTLKWNLFNKQNTIVLLITLLLLYILWLEFYQFYHILSFYGNINWAFDYDEYIWTLELDTRRTRLANNYIAICLFAKFWHFVFIFLFWVFFVLRINELGRIRYPLLVANVQNFIIIYIMSWAYMYPWLKFIFRKYLDVPYYWFYLNGRELGIRVFFTDLKLFFYGITNRLFDFNPSSIKFEKYPFYYWINSSQLTEFNQYRKFVIRDSIIYSLNNYII

No constants are given. Whether binding was seen depends on the method and setting. A result given as binding can be weak or reduced; the word gives no strength.
